According to PubChem BioAssay AID200 (DTP/NCI, 2004):
The list is a part of this screen's results and no random one: it gathers tests that were run many times, whatever their T/C, doses with no T/C, and many T/C values between a quarter and a half above the control. Other doses and runs of a compound stand elsewhere. T/C gives the treated animals as a percentage of the vehicle group. Some doses have a count of surviving animals in place of a T/C: the source holds a T/C of zero for them, seemingly a mark for toxic or unscored doses. Some survivor counts are full or nearly so, which does not show that the dose was tolerated: the source hardly ever lists a survival T/C far under the control, and the zero likely stands for such cases as well. Survivors were counted at the toxicity check, usually on the fifth day, unless a day is given; later deaths do not show. Schedules are NCI's codes, taken here to give the interval after Q, in days (D) or hours (H), and the number of doses after X. Some entries hold several experiments; the values are given in rising order. For survival time, this PubChem deposit counts one and a half times the control or more as active, and values a quarter to a half above the control carry no call in these data; other NCI protocols may use other cut-offs. Some T/C values carry the count of animals alive at the toxicity check (mostly the fifth day); where none is given, no animal had died by that day.

Test system: B6C3F1 mice, B16 melanoma ip, median survival T/C
Assay: NCI In Vivo Anticancer Drug Screen. Data for tumor model B16 Melanoma (intraperitoneal) in B6C3F1 mice
Details: T/C endpoint: median survival time, higher T/C = longer survival
In short: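 Tumor-bearing mice received test compound; a separate group got vehicle only. Survival was then compared, with results reported as treated over control.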

[1] = dose: 8.0 mg/kg/injection, schedule: Q01DX009 (ip), vehicle: saline + alcohol
[2] = dose: 16.0 mg/kg/injection, schedule: Q01DX009 (ip), vehicle: saline + alcohol

CC(=O)OC1C(O)C(C)OC(OC2C(OC(=O)C3CCC4C(C3)OC3(CC(OC(=O)/C=C/c5ccccc5)C(C)CO3)C43CO3)OC(C)C(O)C2OC(C)=O)C1O (centres undefined)
T/C (dose: 1.5 mg/kg/injection, schedule: Q03HX024 (ip), vehicle: other): 130 % of control [7 of 9 alive]
T/C (dose: 1.8 mg/kg/injection, schedule: Q01DX005 (ip), vehicle: other): 133 % of control
T/C (dose: 2.0 mg/kg/injection, schedule: Q01DX009 (ip), vehicle: other): 130 % of control [9 of 10 alive]
T/C (dose: 2.0 mg/kg/injection, schedule: Q01DX009 (ip), vehicle: saline + alcohol): 129 [9 of 10 alive], 131, 140 % of control
T/C (dose: 2.0 mg/kg/injection, schedule: Q01DX009 (ip), vehicle: saline): 147 % of control
T/C (dose: 2.0 mg/kg/injection, schedule: Q02DX005 (ip), vehicle: saline + Tween-80 + alcohol): 147 % of control
T/C (dose: 2.0 mg/kg/injection, schedule: Q02DX005 (ip), vehicle: saline + alcohol): 133 % of control
survivor count (dose: 3.0 mg/kg/injection, schedule: Q03HX024 (ip), vehicle: other): 7 of 10
T/C (dose: 3.0 mg/kg/injection, schedule: Q04DX003 (ip), vehicle: saline + Tween-80 + alcohol): 127 % of control [7 of 8 alive]
T/C (dose: 3.0 mg/kg/injection, schedule: Q04DX003 (ip), vehicle: saline + alcohol): 129 % of control
T/C (dose: 3.6 mg/kg/injection, schedule: Q01DX005 (ip), vehicle: other): 139 % of control
T/C (dose: 4.0 mg/kg/injection, schedule: Q01DX009 (ip), vehicle: other): 144 % of control
T/C (dose: 4.0 mg/kg/injection, schedule: Q01DX009 (ip), vehicle: saline + alcohol): 138, 145, 162, 163 % of control
T/C (dose: 4.0 mg/kg/injection, schedule: Q02DX005 (ip), vehicle: saline + Tween-80 + alcohol): 147 % of control
T/C (dose: 4.0 mg/kg/injection, schedule: Q02DX005 (ip), vehicle: saline + alcohol): 133 % of control
survivor count (dose: 4.5 mg/kg/injection, schedule: Q03HX008 (ip), vehicle: other): 3 of 10
survivor count (dose: 6.0 mg/kg/injection, schedule: Q03HX024 (ip), vehicle: other): 2 of 10
T/C (dose: 6.0 mg/kg/injection, schedule: Q04DX003 (ip), vehicle: other): 135 % of control
T/C (dose: 6.0 mg/kg/injection, schedule: Q04DX003 (ip), vehicle: saline + Tween-80 + alcohol): 143 % of control
T/C (dose: 6.0 mg/kg/injection, schedule: Q04DX003 (ip), vehicle: saline + alcohol): 127 % of control
T/C (dose: 7.2 mg/kg/injection, schedule: Q01DX005 (ip), vehicle: other): 148 % of control
T/C [1]: 161, 170, 174 % of control
survivor count [1]: 10 of 10
T/C (dose: 8.0 mg/kg/injection, schedule: Q02DX005 (ip), vehicle: saline + alcohol): 146 % of control
survivor count (dose: 9.0 mg/kg/injection, schedule: Q03HX008 (ip), vehicle: other): 0 of 10
survivor count (dose: 12.0 mg/kg/injection, schedule: Q03HX024 (ip), vehicle: other): 0 of 10
T/C (dose: 12.0 mg/kg/injection, schedule: Q04DX003 (ip), vehicle: other): 135 % of control
T/C (dose: 12.0 mg/kg/injection, schedule: Q04DX003 (ip), vehicle: saline + Tween-80 + alcohol): 137 % of control
T/C [2]: 144 [9 of 10 alive], 170, 190 % of control
survivor count [2]: 10 of 10
T/C (dose: 16.0 mg/kg/injection, schedule: Q01DX009 (ip), vehicle: saline): 142 % of control
survivor count (dose: 18.0 mg/kg/injection, schedule: Q03HX008 (ip), vehicle: other): 0 of 10
T/C (dose: 24.0 mg/kg/injection, schedule: Q04DX003 (ip), vehicle: other): 142 % of control
T/C (dose: 24.0 mg/kg/injection, schedule: Q04DX003 (ip), vehicle: saline + Tween-80 + alcohol): 138 % of control
T/C (dose: 24.0 mg/kg/injection, schedule: Q04DX003 (ip), vehicle: saline + alcohol): 127 % of control
survivor count (dose: 28.8 mg/kg/injection, schedule: Q01DX005 (ip), vehicle: other): 9 of 10
survivor count (dose: 28.8 mg/kg/injection, schedule: Q01DX005 (iv), vehicle: other): 0 of 10
survivor count (dose: 32.0 mg/kg/injection, schedule: Q01DX009 (ip), vehicle: distilled water + alcohol): 6 of 10
survivor count (dose: 32.0 mg/kg/injection, schedule: Q01DX009 (ip), vehicle: other): 10 of 10
survivor count (dose: 32.0 mg/kg/injection, schedule: Q01DX009 (ip), vehicle: saline + alcohol): 10 of 10 and 8 of 8
survivor count (dose: 32.0 mg/kg/injection, schedule: Q02DX005 (ip), vehicle: saline + Tween-80 + alcohol): 7 of 7
survivor count (dose: 36.0 mg/kg/injection, schedule: Q01DX001 (iv), vehicle: other): 3 of 10
survivor count (dose: 36.0 mg/kg/injection, schedule: Q03HX008 (ip), vehicle: other): 0 of 10
T/C (dose: 48.0 mg/kg/injection, schedule: Q04DX003 (ip), vehicle: other): 148 % of control
T/C (dose: 48.0 mg/kg/injection, schedule: Q04DX003 (ip), vehicle: saline + Tween-80 + alcohol): 132 % of control
T/C (dose: 48.0 mg/kg/injection, schedule: Q04DX003 (ip), vehicle: saline + alcohol): 131 % of control [9 of 10 alive]
survivor count (dose: 57.6 mg/kg/injection, schedule: Q01DX005 (ip), vehicle: other): 8 of 10
survivor count (dose: 64.0 mg/kg/injection, schedule: Q01DX009 (oral), vehicle: other): 1 of 10
T/C (dose: 64.0 mg/kg/injection, schedule: Q01DX009 (sc), vehicle: other): 128 % of control
survivor count (dose: 64.0 mg/kg/injection, schedule: Q02DX005 (ip), vehicle: saline + Tween-80 + alcohol): 7 of 7
survivor count (dose: 64.0 mg/kg/injection, schedule: Q02DX005 (ip), vehicle: saline + alcohol): 5 of 10
T/C (dose: 72.0 mg/kg/injection, schedule: Q01DX001 (ip), vehicle: other): 129 % of control
survivor count (dose: 72.0 mg/kg/injection, schedule: Q01DX001 (iv), vehicle: other): 0 of 10
T/C (dose: 96.0 mg/kg/injection, schedule: Q04DX003 (ip), vehicle: other): 141 % of control [8 of 9 alive]
survivor count (dose: 96.0 mg/kg/injection, schedule: Q04DX003 (ip), vehicle: saline + alcohol): 2 of 10
survivor count (dose: 128.0 mg/kg/injection, schedule: Q01DX009 (oral), vehicle: other): 0 of 10
survivor count (dose: 144.0 mg/kg/injection, schedule: Q01DX001 (ip), vehicle: other): 0 of 10
survivor count (dose: 144.0 mg/kg/injection, schedule: Q01DX001 (iv), vehicle: other): 0 of 10
survivor count (dose: 288.0 mg/kg/injection, schedule: Q01DX001 (ip), vehicle: other): 0 of 10
